This is an account of results in publication doi:10.1101/2022.01.28.478199.

Amino acid sequences for entries named in this document (tags omitted). Residues count along the entry.
UniProt P33416, 45-811: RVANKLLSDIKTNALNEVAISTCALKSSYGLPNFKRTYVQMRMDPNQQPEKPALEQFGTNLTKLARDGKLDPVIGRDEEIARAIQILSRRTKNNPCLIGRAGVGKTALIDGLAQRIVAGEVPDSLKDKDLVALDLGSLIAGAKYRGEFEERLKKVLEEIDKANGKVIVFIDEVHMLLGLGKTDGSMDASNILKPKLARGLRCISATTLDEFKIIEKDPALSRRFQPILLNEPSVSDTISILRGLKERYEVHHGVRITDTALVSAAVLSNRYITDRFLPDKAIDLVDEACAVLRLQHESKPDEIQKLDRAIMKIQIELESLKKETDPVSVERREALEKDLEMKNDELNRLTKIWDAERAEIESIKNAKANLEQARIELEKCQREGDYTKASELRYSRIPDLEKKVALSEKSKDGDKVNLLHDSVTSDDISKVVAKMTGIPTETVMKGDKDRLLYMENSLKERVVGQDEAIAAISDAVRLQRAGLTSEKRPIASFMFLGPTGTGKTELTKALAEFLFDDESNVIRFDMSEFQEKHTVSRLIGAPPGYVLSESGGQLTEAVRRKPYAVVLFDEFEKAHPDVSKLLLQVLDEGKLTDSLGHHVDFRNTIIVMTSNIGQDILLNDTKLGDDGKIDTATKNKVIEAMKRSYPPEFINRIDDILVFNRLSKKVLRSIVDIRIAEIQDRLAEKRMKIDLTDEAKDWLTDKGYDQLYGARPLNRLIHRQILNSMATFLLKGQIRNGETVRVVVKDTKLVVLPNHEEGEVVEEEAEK
UniProt P0CS90, 24-654: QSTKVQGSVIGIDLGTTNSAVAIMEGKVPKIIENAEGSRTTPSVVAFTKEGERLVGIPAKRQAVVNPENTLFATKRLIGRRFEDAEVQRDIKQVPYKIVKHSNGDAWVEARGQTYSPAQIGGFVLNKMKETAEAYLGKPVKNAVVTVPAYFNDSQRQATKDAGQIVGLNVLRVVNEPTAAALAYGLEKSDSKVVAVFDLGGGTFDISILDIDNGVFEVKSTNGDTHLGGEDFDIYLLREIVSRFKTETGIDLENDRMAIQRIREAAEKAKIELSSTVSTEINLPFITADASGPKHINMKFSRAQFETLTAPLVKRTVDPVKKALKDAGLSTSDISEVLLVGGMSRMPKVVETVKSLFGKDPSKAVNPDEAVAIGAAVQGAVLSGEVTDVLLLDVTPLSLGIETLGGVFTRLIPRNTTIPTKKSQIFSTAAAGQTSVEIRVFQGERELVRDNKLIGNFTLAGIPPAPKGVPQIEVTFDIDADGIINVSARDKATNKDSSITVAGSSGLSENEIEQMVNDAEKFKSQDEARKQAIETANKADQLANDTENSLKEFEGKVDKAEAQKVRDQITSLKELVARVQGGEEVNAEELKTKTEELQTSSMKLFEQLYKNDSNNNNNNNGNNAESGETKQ

These are yes or no findings as the source states them, for the method shown. For part of these data: In cells and extracts the contact can be indirect. Some results given as binding are weak or reduced against the parent protein; the word gives no strength.

Assay [1] has as its target WT Hsp78 expressed and affinity purified from E. coli (S. cerevisiae) (UniProt P33416). In words: SEC. (Size exclusion chromatography separates by hydrodynamic size, large species first.)
For assay [2] the target is unchanged. In words: native gel or EMSA. In general terms: A gel shift assay detects complexes by their altered migration in electrophoresis.
The target of assay [3] is Hsp78-6xHis (wild-type Hsp78 with a C-terminal 6x polyhistidine-tag) (S. cerevisiae) (UniProt P33416). In words: pull-down.

Turning to “WT Hsp78 expressed and affinity purified from E. coli (from UniProt P33416 45-811)”, the binding entry in assay [1] and in assay [2] was “binds” each time.

As to “Ssc1 (mtHsp70, main Hsp70 chaperone of the mitochondrial matrix) (from UniProt P0CS90 24-654)”, in assay [3], the binding entry is reported as “binds”.
